For assay [1], the target named is T1, N-terminally T25-fused PhoR (Salmonella enterica serovar Typhimurium).
T1 sequence: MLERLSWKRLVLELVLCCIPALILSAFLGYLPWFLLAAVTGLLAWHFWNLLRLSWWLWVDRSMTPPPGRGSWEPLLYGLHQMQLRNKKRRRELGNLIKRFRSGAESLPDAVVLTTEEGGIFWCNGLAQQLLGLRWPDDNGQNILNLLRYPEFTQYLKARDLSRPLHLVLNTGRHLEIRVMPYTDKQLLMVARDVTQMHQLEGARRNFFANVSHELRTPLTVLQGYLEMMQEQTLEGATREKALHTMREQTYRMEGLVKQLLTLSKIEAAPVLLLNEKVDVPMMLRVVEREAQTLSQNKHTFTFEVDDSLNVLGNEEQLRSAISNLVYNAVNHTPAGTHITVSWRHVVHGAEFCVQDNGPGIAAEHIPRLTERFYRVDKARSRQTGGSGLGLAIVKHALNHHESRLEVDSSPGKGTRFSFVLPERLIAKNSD
Briefly: two-hybrid; bacterial two-hybrid (BACTH) in E. coli BTH101 lacking cya; CyaA T18 and T25 fusions; spotted on LB plates with X-Gal and IPTG, 30°C, 40 h; β-galactosidase assay (Miller units).

Assay [2] has as its target T2, N-terminal fusion of the cyaA T25 fragment to PstB (Salmonella enterica serovar Typhimurium).
T2 sequence: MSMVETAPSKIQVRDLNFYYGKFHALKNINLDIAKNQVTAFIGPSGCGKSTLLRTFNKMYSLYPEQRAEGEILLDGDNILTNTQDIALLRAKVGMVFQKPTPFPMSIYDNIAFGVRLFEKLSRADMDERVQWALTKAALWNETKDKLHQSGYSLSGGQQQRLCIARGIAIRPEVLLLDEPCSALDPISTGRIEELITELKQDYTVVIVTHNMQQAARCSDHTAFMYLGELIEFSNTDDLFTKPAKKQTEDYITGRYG
Described as above.

The target in assay [3] is C-terminally 8×Myc-tagged PhoR protein (Salmonella enterica serovar Typhimurium). Kind of assay: co-IP; crude extracts of Salmonella (phoR-8×Myc background, PhoU-His from pBAD33) in TBS; anti-Myc antibody and protein G Sepharose, 2 h at 4°C; blots with anti-His and anti-Myc.

Among the data in paper PMC9239213 are binding values, retold here.

No constants are given. Whether binding was seen depends on the method and setting. A result given as binding can be weak or reduced; the word gives no strength. Sequences can lack the tags named with a protein. For some of these results: Binding seen in cells or lysates may run through a third protein.

B1: T18-PhoU(1-120) (domain or fragment, UniProt A0A2X4TL38 1-120)
chain: MDSLNLNKHISGQFNAELESIRTQVMTMGGMVEQQLSDAITAMHNQDSELAKRVIDGDKHVNMMEVAIDEACVRIIAKRQPTASDLRLVMAIIKTIAELERIGDVADKICRTALEKFSQQ
As for B1, in assay [1], the binding result is on record as “no binding”.

B2: T18-PhoU(1-77) (domain or fragment, UniProt A0A2X4TL38 1-77)
chain: MDSLNLNKHISGQFNAELESIRTQVMTMGGMVEQQLSDAITAMHNQDSELAKRVIDGDKHVNMMEVAIDEACVRIIA
In the case of B2, in assay [1], the binding result is “no binding”.

B3: T18-PhoU(1-119) (domain or fragment, UniProt A0A2X4TL38 1-119)
chain: MDSLNLNKHISGQFNAELESIRTQVMTMGGMVEQQLSDAITAMHNQDSELAKRVIDGDKHVNMMEVAIDEACVRIIAKRQPTASDLRLVMAIIKTIAELERIGDVADKICRTALEKFSQ
As to B3, the binding result in assay [1] was “no binding”.

With MDSLNLNKHISGQFNAELESIRTQVMTMGGMVEQQLSDAITAMH (domain or fragment, UniProt A0A2X4TL38 1-44) [T18-PhoU(1-44)], in assay [1], the binding entry is given as “no binding”.

B4: T18-PhoU(1-147) (domain or fragment, UniProt A0A2X4TL38 1-147)
chain: MDSLNLNKHISGQFNAELESIRTQVMTMGGMVEQQLSDAITAMHNQDSELAKRVIDGDKHVNMMEVAIDEACVRIIAKRQPTASDLRLVMAIIKTIAELERIGDVADKICRTALEKFSQQHQPLLVSLESLGRHTVQMLHDVLDAFA
With B4, in assay [1], the binding entry is reported as “no binding”.

B5: T18-PhoU(1-218) (domain or fragment, UniProt A0A2X4TL38 1-218)
chain: MDSLNLNKHISGQFNAELESIRTQVMTMGGMVEQQLSDAITAMHNQDSELAKRVIDGDKHVNMMEVAIDEACVRIIAKRQPTASDLRLVMAIIKTIAELERIGDVADKICRTALEKFSQQHQPLLVSLESLGRHTVQMLHDVLDAFARMDLDEAVRIYREDKKVDQEYEGIVRQLMTYMMEDSRTIPSVLTALFCARSIERIGDRCQNICEYIFYFVK
As for B5, the binding result in assay [1] is on record as “binds”.

B6: N-terminally T18-fused PhoU (protein, UniProt A0A2X4TL38 1-241)
chain: MDSLNLNKHISGQFNAELESIRTQVMTMGGMVEQQLSDAITAMHNQDSELAKRVIDGDKHVNMMEVAIDEACVRIIAKRQPTASDLRLVMAIIKTIAELERIGDVADKICRTALEKFSQQHQPLLVSLESLGRHTVQMLHDVLDAFARMDLDEAVRIYREDKKVDQEYEGIVRQLMTYMMEDSRTIPSVLTALFCARSIERIGDRCQNICEYIFYFVKGQDFRHVGGDELDKLLAGKDPKE
Turning to B6, the binding entry in assay [2] and in assay [1] was “binds” each time.

B7: C-terminally His-tagged PhoU protein (protein, UniProt A0A2X4TL38 1-241)
chain: B6 chain
Take B7: the binding result in assay [3] is “binds”.

B8: T18-PhoU(1-181) (domain or fragment, UniProt A0A2X4TL38 1-181)
chain: MDSLNLNKHISGQFNAELESIRTQVMTMGGMVEQQLSDAITAMHNQDSELAKRVIDGDKHVNMMEVAIDEACVRIIAKRQPTASDLRLVMAIIKTIAELERIGDVADKICRTALEKFSQQHQPLLVSLESLGRHTVQMLHDVLDAFARMDLDEAVRIYREDKKVDQEYEGIVRQLMTYMME
For the molecule B8, the binding entry in assay [1] is “no binding”.
